Results are given in words; binding and its absence hold for the method and conditions named. Some results given as binding are weak or reduced against the parent protein; the word gives no strength.
Key:
[1] = molecular target: CNX-his antigen (Genscript) (human) (UniProt P27824); assay: ELISA, His-tagged human CNX coated, antibody at 10 µg/ml
[2] = molecular target: CNX-his antigen (Genscript) (human) (UniProt P27824); assay: ELISA, His-tagged human CNX coated on wells, BSA-coated control wells
[3] = molecular target: CNX-his antigen (Genscript) (human) (UniProt P27824); assay: ELISA, legend of FIG. 56
[4] = molecular target: CNX-his antigen (Genscript) (human) (UniProt P27824); assay: ELISA with serial dilutions, legend of FIG. 57
[5] = molecular target: CNX-his antigen (Genscript) (human) (UniProt P27824); assay: ELISA with serial dilutions of the antibody on coated His-tagged human CNX

Chains of the proteins cited; added tags and fusions are not shown. Residues count along the entry.
UniProt P27824, residues 21-481: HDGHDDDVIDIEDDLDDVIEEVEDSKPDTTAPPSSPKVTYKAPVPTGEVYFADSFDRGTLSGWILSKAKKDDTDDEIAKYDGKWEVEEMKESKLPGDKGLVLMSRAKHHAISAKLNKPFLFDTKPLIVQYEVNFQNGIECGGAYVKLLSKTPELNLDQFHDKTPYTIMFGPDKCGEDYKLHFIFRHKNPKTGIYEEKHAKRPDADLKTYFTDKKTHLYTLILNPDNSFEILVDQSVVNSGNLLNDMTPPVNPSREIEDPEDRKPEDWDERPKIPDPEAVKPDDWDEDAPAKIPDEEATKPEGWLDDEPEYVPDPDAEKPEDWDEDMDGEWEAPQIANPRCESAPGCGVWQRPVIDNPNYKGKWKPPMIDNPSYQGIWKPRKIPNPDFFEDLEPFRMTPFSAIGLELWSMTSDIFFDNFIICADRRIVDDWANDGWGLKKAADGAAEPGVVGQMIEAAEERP

Measured: binding

B1: monoclonal anti-CNX antibody clone 2G9 (antibody, V domains shown)
VH: QVTLKESGGGVVQPGRSLRLSCAASGFTFSSYGMHWVRQAPGKGLEWVAVISYDGSNKYYADSVKGRFTISRDNSKNTLYLQMNSLRAEDTAVYYCTQGRDYWGQGTLVTVSS
VL: QAVLTQPSSLSASPGASASLTCTLRSGINVGTYRIYWYQQKPGSPPQYLLRYKSDSDKQQGSGVPSRFSGSKDASANAGILLISGLQSEDEADYYCMIWHSSAWVFGGGTKLTVL
binds: all assays above

Reference: patent US20260250378A1
